PubChem BioAssay AID1224828 | NIAID – 2016

Screen: 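Find genes required for NF-kappaB p65 moving into the nucleus after LPS in mouse macrophages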 (primary screen)
Cell system: mouse RAW264.7 G9 macrophage reporter cells (GFP-p65, Tnf promoter-mCherry)
Reagent: siRNA pool against mouse genes, 100 nM
Time to read-out: 2 days siRNA transfection, then 40 min LPS before fixation
Treatment: LPS (Salmonella minnesota R595) at 10 ng/ml
Read-out: 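Imaged p65 nuclear translocation ratio, normalised to the plate median, converted to robust z-scores and averaged across two replicates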
Direction: p65 translocation robust z-score: higher = more nuclear NF-kappaB p65 after LPS than the plate median; nuclear/cytoplasmic p65 ratio: higher = more nuclear NF-kappaB p65
Rule for the call: 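Called active when z exceeds 3.3 or falls under -1.56 (median of Tlr4 controls), giving activity score of at least 50; no calls for control wells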
Calls: active = hit (p65 shift raised or lowered); inactive = no clear change
In all, the deposit lists about 17,000 reagents; below is a random part of them. Of all reagents, 762 (4.5%) were called active. 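Active calls include both raised and lowered p65 entry, mostly lowered; wells with fewer than 50 cells lack a z-score.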 Raw values vary from plate to plate and are shown uncorrected.

What did the screen give for Lingo4 (leucine rich repeat and Ig domain containing 4) [SID315481388]?
p65 translocation robust z-score: 0.21; nuclear/cytoplasmic p65 ratio, rep 1: 1.4; nuclear/cytoplasmic p65 ratio, rep 2: 1.56; low cell count flag: enough cells to score; activity call: inactive

For Hycc2 (hyccin PI4KA lipid kinase complex subunit 2) [SID315477781], what does the deposit list?
p65 translocation robust z-score: 0.32; nuclear/cytoplasmic p65 ratio, rep 1: 1.51; nuclear/cytoplasmic p65 ratio, rep 2: 1.53; low cell count flag: enough cells to score; activity call: inactive

With Or8k40 (olfactory receptor family 8 subfamily K member 40) [SID315480486], what was measured?
p65 translocation robust z-score: 1.02; nuclear/cytoplasmic p65 ratio, rep 1: 1.83; nuclear/cytoplasmic p65 ratio, rep 2: 1.71; low cell count flag: enough cells to score; activity call: inactive

How did the screen score Stc1 (stanniocalcin 1) [SID315469491]?
p65 translocation robust z-score: -0.25; nuclear/cytoplasmic p65 ratio, rep 1: 1.37; nuclear/cytoplasmic p65 ratio, rep 2: 1.21; low cell count flag: enough cells to score; activity call: inactive

What did the screen give for Prdx6 (peroxiredoxin 6) [SID315465429]?
p65 translocation robust z-score: -0.42; nuclear/cytoplasmic p65 ratio, rep 1: 1.42; nuclear/cytoplasmic p65 ratio, rep 2: 1.37; low cell count flag: enough cells to score; activity call: inactive

With Zfp689 (zinc finger protein 689) [SID315474188], how do the results read?
p65 translocation robust z-score: -0.41; nuclear/cytoplasmic p65 ratio, rep 1: 1.37; nuclear/cytoplasmic p65 ratio, rep 2: 1.35; low cell count flag: enough cells to score; activity call: inactive

How did the screen score Ccdc85b (coiled-coil domain containing 85B) [SID315479504]?
p65 translocation robust z-score: 1.37; nuclear/cytoplasmic p65 ratio, rep 1: 2.02; nuclear/cytoplasmic p65 ratio, rep 2: 1.67; low cell count flag: enough cells to score; activity call: inactive

For Sema3a [SID315469171], what does the deposit list?
p65 translocation robust z-score: -0.01; nuclear/cytoplasmic p65 ratio, rep 1: 1.6; nuclear/cytoplasmic p65 ratio, rep 2: 1.5; low cell count flag: enough cells to score; activity call: inactive

How did the screen score Pola1 (polymerase (DNA directed), alpha 1) [SID315468616]?
p65 translocation robust z-score: 0.74; nuclear/cytoplasmic p65 ratio, rep 1: 1.59; nuclear/cytoplasmic p65 ratio, rep 2: 1.51; low cell count flag: enough cells to score; activity call: inactive

What did the screen give for Gsap (gamma-secretase activating protein) [SID315477725]?
p65 translocation robust z-score: -0.32; nuclear/cytoplasmic p65 ratio, rep 1: 1.27; nuclear/cytoplasmic p65 ratio, rep 2: 1.55; low cell count flag: enough cells to score; activity call: inactive

For Tnfrsf21 (tumor necrosis factor receptor superfamily, member 21) [SID315476047], how do the results read?
p65 translocation robust z-score: -0.38; nuclear/cytoplasmic p65 ratio, rep 1: 1.37; nuclear/cytoplasmic p65 ratio, rep 2: 1.56; low cell count flag: enough cells to score; activity call: inactive

What is on record for Fkbp5 (FK506 binding protein 5) [SID315466701]?
p65 translocation robust z-score: 0.38; nuclear/cytoplasmic p65 ratio, rep 1: 1.46; nuclear/cytoplasmic p65 ratio, rep 2: 1.44; low cell count flag: enough cells to score; activity call: inactive

With Plvap (plasmalemma vesicle associated protein) [SID315475892], what was measured?
nuclear/cytoplasmic p65 ratio, rep 1: 1.35; nuclear/cytoplasmic p65 ratio, rep 2: 1.19; low cell count flag: fewer than 50 cells per well; well left out of scoring; activity call: inactive

For Oaf (out at first homolog) [SID315476343], how do the results read?
p65 translocation robust z-score: -0.61; nuclear/cytoplasmic p65 ratio, rep 1: 1.51; nuclear/cytoplasmic p65 ratio, rep 2: 1.65; low cell count flag: enough cells to score; activity call: inactive

Targets listed so far whose gene name starts with P or p (3):
Prdx6 (peroxiredoxin 6) [SID315465429] → p65 translocation robust z-score = -0.42; nuclear/cytoplasmic p65 ratio, rep 1 = 1.42; nuclear/cytoplasmic p65 ratio, rep 2 = 1.37; low cell count flag = enough cells to score; activity call = inactive
Pola1 (polymerase (DNA directed), alpha 1) [SID315468616] → p65 translocation robust z-score = 0.74; nuclear/cytoplasmic p65 ratio, rep 1 = 1.59; nuclear/cytoplasmic p65 ratio, rep 2 = 1.51; low cell count flag = enough cells to score; activity call = inactive
Plvap (plasmalemma vesicle associated protein) [SID315475892] → nuclear/cytoplasmic p65 ratio, rep 1 = 1.35; nuclear/cytoplasmic p65 ratio, rep 2 = 1.19; low cell count flag = fewer than 50 cells per well; well left out of scoring; activity call = inactive
